Earlier results as cited in US20030022912A1, “Rapid-onset medicament for treatment of sexual dysfunction” (priority 2001, published 2003).

Conditions: human subjects; sublingual administration; drug as free base except where a footnote notes a salt

Compound	sublingual Tmax
CN1[C@@H]2C[C@@H](OC(=O)[C@H](CO)c3ccccc3)C[C@H]1[C@@H]1O[C@@H]12 [scopolamine]	50 min
CN1CC[C@]23c4c5ccc(O)c4O[C@H]2[C@@H](O)C=C[C@H]3[C@H]1C5 [morphine]	48 min
